From the supplement of paper PMC8728848
The list shows a part of the results.

Assays:
Test in all cases: glycan array binding signal (z-score within array); higher = stronger binding
Conditions in all cases: glycan notation: IUPAC condensed, linker removed
[1] = target: Gal(a1-3)Gal(b1-4)GlcNAc(b1-2)Man
Procedure, shortened: (§1)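 The binding signal is a Z-score computed within each array and averaged over linkers. Arrays of the same protein sequence at different concentrations or buffers were also averaged together. Data originate from 3228 arrays in the Consortium for Functional Glycomics database, kept only where the protein sequence was available.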

[2] = target: Gal(a1-3)Gal(b1-4)GlcNAc(b1-2)Man(a1-3)[Gal(a1-3)Gal(b1-4)GlcNAc(b1-2)Man(a1-6)]Man(b1-4)GlcNAc(b1-4)GlcNAc
Procedure, shortened: as §1

[3] = target: Gal(a1-3)Gal(b1-4)GlcNAc(b1-3)GalNAc
Procedure, shortened: as §1

[4] = target: Gal(a1-3)Gal(b1-4)GlcNAc(b1-6)GalNAc
Procedure, shortened: as §1

[5] = target: Gal(a1-3)Gal(b1-4)[Fuc(a1-3)]GlcNAc
Procedure, shortened: as §1

[6] = target: Gal(a1-3)Gal(b1-4)[Fuc(a1-3)]GlcNAc(b1-2)Man(a1-3)[Gal(a1-3)Gal(b1-4)[Fuc(a1-3)]GlcNAc(b1-2)Man(a1-6)]Man(b1-4)GlcNAc(b1-4)GlcNAc
Procedure, shortened: as §1

Gal(a1-3)GalNAc = target: Gal(a1-3)GalNAc
Procedure, shortened: as §1

[7] = target: Gal(a1-3)[Gal(a1-4)]Gal(b1-4)GlcNAc
Procedure, shortened: as §1

[8] = target: Gal(a1-4)Gal(b1-3)GlcNAc(b1-2)Man(a1-3)[Gal(a1-4)Gal(b1-3)GlcNAc(b1-2)Man(a1-6)]Man(b1-4)GlcNAc(b1-4)GlcNAc
Procedure, shortened: as §1

Gal(a1-4)Gal(b1-4)Glc = target: Gal(a1-4)Gal(b1-4)Glc
Procedure, shortened: as §1

Gal(a1-4)Gal(b1-4)GlcNAc = target: Gal(a1-4)Gal(b1-4)GlcNAc
Procedure, shortened: as §1

[9] = target: Gal(a1-4)Gal(b1-4)GlcNAc(b1-2)Man(a1-3)[Gal(a1-4)Gal(b1-4)GlcNAc(b1-2)Man(a1-6)]Man(b1-4)GlcNAc(b1-4)GlcNAc
Procedure, shortened: as §1

[10] = target: Gal(a1-4)Gal(b1-4)GlcNAc(b1-3)Gal(b1-4)Glc
Procedure, shortened: as §1

Gal(a1-4)GlcNAc = target: Gal(a1-4)GlcNAc
Procedure, shortened: as §1

Gal(a1-6)Glc = target: Gal(a1-6)Glc
Procedure, shortened: as §1

Gal(b1-2)Gal = target: Gal(b1-2)Gal
Procedure, shortened: as §1

Gal(b1-3)Gal = target: Gal(b1-3)Gal
Procedure, shortened: as §1

Gal(b1-3)Gal(b1-4)GlcNAc = target: Gal(b1-3)Gal(b1-4)GlcNAc
Procedure, shortened: as §1

Gal(b1-3)GalNAc = target: Gal(b1-3)GalNAc
Procedure, shortened: as §1

[11] = target: Gal(b1-3)GalNAc(a1-3)[Fuc(a1-2)]Gal(b1-4)Glc
Procedure, shortened: as §1

[12] = target: Gal(b1-3)GalNAc(a1-3)[Fuc(a1-2)]Gal(b1-4)GlcNAc
Procedure, shortened: as §1

Gal(b1-3)GalNAc(b1-3)Gal = target: Gal(b1-3)GalNAc(b1-3)Gal
Procedure, shortened: as §1

[13] = target: Gal(b1-3)GalNAc(b1-3)Gal(a1-4)Gal(b1-4)Glc
Procedure, shortened: as §1

[14] = target: Gal(b1-3)GalNAc(b1-4)Gal(b1-4)Glc
Procedure, shortened: as §1

[15] = target: Gal(b1-3)GalNAc(b1-4)[Neu5Ac(a2-3)]Gal(b1-4)Glc
Procedure, shortened: as §1

Gal(b1-3)GlcNAc = target: Gal(b1-3)GlcNAc
Procedure, shortened: as §1

[16] = target: Gal(b1-3)GlcNAc(a1-3)Gal(b1-4)GlcNAc
Procedure, shortened: as §1

[17] = target: Gal(b1-3)GlcNAc(a1-6)Gal(b1-4)GlcNAc
Procedure, shortened: as §1

Gal(b1-3)GlcNAc(b1-2)Man = target: Gal(b1-3)GlcNAc(b1-2)Man
Procedure, shortened: as §1

[18] = target: Gal(b1-3)GlcNAc(b1-2)Man(a1-3)[Gal(b1-3)GlcNAc(b1-2)Man(a1-6)]Man(b1-4)GlcNAc(b1-4)GlcNAc
Procedure, shortened: as §1

[19] = target: Gal(b1-3)GlcNAc(b1-2)Man(a1-3)[Gal(b1-3)GlcNAc(b1-2)Man(a1-6)]Man(b1-4)GlcNAc(b1-4)[Fuc(a1-6)]GlcNAc
Procedure, shortened: as §1

[20] = target: Gal(b1-3)GlcNAc(b1-2)Man(a1-3)[GlcNAc(b1-4)][Gal(b1-3)GlcNAc(b1-2)Man(a1-6)]Man(b1-4)GlcNAc(b1-4)GlcNAc
Procedure, shortened: as §1

[21] = target: Gal(b1-3)GlcNAc(b1-2)[Gal(b1-3)GlcNAc(b1-6)]Man(a1-6)[Gal(b1-3)GlcNAc(b1-2)Man(a1-3)]Man(b1-4)GlcNAc(b1-4)GlcNAc
Procedure, shortened: as §1

[22] = target: Gal(b1-3)GlcNAc(b1-3)Gal(b1-3)GlcNAc
Procedure, shortened: as §1

[23] = target: Gal(b1-3)GlcNAc(b1-3)Gal(b1-4)Glc
Procedure, shortened: as §1

[24] = target: Gal(b1-3)GlcNAc(b1-3)Gal(b1-4)GlcNAc
Procedure, shortened: as §1

[25] = target: Gal(b1-3)GlcNAc(b1-3)Gal(b1-4)GlcNAc(b1-2)Man(a1-3)[Gal(b1-3)GlcNAc(b1-3)Gal(b1-4)GlcNAc(b1-2)Man(a1-6)]Man(b1-4)GlcNAc(b1-4)GlcNAc
Procedure, shortened: as §1

[26] = target: Gal(b1-3)GlcNAc(b1-3)Gal(b1-4)GlcNAc(b1-2)[Gal(b1-3)GlcNAc(b1-3)Gal(b1-4)GlcNAc(b1-6)]Man(a1-6)[Gal(b1-3)GlcNAc(b1-3)Gal(b1-4)GlcNAc(b1-2)Man(a1-3)]Man(b1-4)GlcNAc(b1-4)[Fuc(a1-6)]GlcNAc
Procedure, shortened: as §1

[27] = target: Gal(b1-3)GlcNAc(b1-3)Gal(b1-4)GlcNAc(b1-3)Gal(b1-4)GlcNAc(b1-2)[Gal(b1-3)GlcNAc(b1-3)Gal(b1-4)GlcNAc(b1-3)Gal(b1-4)GlcNAc(b1-6)]Man(a1-6)[Gal(b1-3)GlcNAc(b1-3)Gal(b1-4)GlcNAc(b1-3)Gal(b1-4)GlcNAc(b1-2)Man(a1-3)]Man(b1-4)GlcNAc(b1-4)[Fuc(a1-6)]GlcNAc
Procedure, shortened: as §1

[28] = target: Gal(b1-3)GlcNAc(b1-3)Gal(b1-4)GlcNAc(b1-6)[Gal(b1-3)GlcNAc(b1-3)]Gal(b1-4)Glc
Procedure, shortened: as §1

[29] = target: Gal(b1-3)GlcNAc(b1-3)Gal(b1-4)[Fuc(a1-3)]GlcNAc
Procedure, shortened: as §1

[30] = target: Gal(b1-3)GlcNAc(b1-3)Gal(b1-4)[Fuc(a1-3)]GlcNAc(b1-6)[Gal(b1-3)GlcNAc(b1-3)]Gal(b1-4)Glc
Procedure, shortened: as §1

[31] = target: Gal(b1-3)GlcNAc(b1-3)GalNAc
Procedure, shortened: as §1

[32] = target: Gal(b1-3)GlcNAc(b1-6)Gal(b1-4)GlcNAc
Procedure, shortened: as §1

[33] = target: Gal(b1-3)GlcNAc(b1-6)GalNAc
Procedure, shortened: as §1

B1: Aap brpt (Staphylococcus epidermidis) (protein)
chain: VDGDPITSTEEIPFDKKREFDPNLAPGTEKVVQKGEPGTKTITTPTTKNPLTGEKVGEGEPTEKITKQPVDEIVHYGGEEIKTGHKDEFDPNAPKGSQTTQPGKPGVKNPDTGEVVTPPVDDVTKYGPVDGDPITSTEEIPFDKKREFDPNLAPGTEKVVQKGEPGTKTITTPTTKNPLTGEKVGEGEPTEKITKQPVDEIVHYGGEEIKPGHKDEFDPNAPKGSQEDVPGKPGVKNPDTGEVVTPPVDDVTKYGPVDGDSITSTEEIPFDKKREFDPNLAPGTEKVVQKGEPGTKTITTPTTKNPLTGEKVGEGEPTEKITKQPVDEIVHYGGEQIPQGHKDEFDPNAPVDSKTEVPGKPGVKNPDTGEVVTPPVDDVTKYGPVDGDSITSTEEIPFDKKREFDPNLAPGTEKVVQKGEPGTKTITTPTTKNPLTGEKVGEGKSTEKVTKQPVDEIVEYGPTK
- glycan array binding signal (z-score) [1]: -0.287
- glycan array binding signal (z-score) [2]: -0.042
- glycan array binding signal (z-score) [3]: -1.4
- glycan array binding signal (z-score) [4]: -0.468
- glycan array binding signal (z-score) [5]: -0.268
- glycan array binding signal (z-score) [6]: 0.481
- glycan array binding signal (z-score) (Gal(a1-3)GalNAc): -1.05
- glycan array binding signal (z-score) [7]: 0.93
- glycan array binding signal (z-score) [8]: -0.999
- glycan array binding signal (z-score) (Gal(a1-4)Gal(b1-4)Glc): 2
- glycan array binding signal (z-score) (Gal(a1-4)Gal(b1-4)GlcNAc): 0.088
- glycan array binding signal (z-score) [9]: 1.48
- glycan array binding signal (z-score) [10]: 1.87
- glycan array binding signal (z-score) (Gal(a1-4)GlcNAc): -1.41
- glycan array binding signal (z-score) (Gal(a1-6)Glc): 1.01
- glycan array binding signal (z-score) (Gal(b1-2)Gal): -0.255
- glycan array binding signal (z-score) (Gal(b1-3)Gal): 0.907
- glycan array binding signal (z-score) (Gal(b1-3)Gal(b1-4)GlcNAc): -0.085
- glycan array binding signal (z-score) (Gal(b1-3)GalNAc): -0.003
- glycan array binding signal (z-score) [11]: -0.33
- glycan array binding signal (z-score) [12]: -1.46
- glycan array binding signal (z-score) (Gal(b1-3)GalNAc(b1-3)Gal): -0.934
- glycan array binding signal (z-score) [13]: -0.558
- glycan array binding signal (z-score) [14]: -0.993
- glycan array binding signal (z-score) [15]: -1.29
- glycan array binding signal (z-score) (Gal(b1-3)GlcNAc): -0.042
- glycan array binding signal (z-score) [16]: -0.076
- glycan array binding signal (z-score) [17]: 0.632
- glycan array binding signal (z-score) (Gal(b1-3)GlcNAc(b1-2)Man): 0.168
- glycan array binding signal (z-score) [18]: 1.51
- glycan array binding signal (z-score) [19]: 0.208
- glycan array binding signal (z-score) [20]: 0.399
- glycan array binding signal (z-score) [21]: 1.27
- glycan array binding signal (z-score) [22]: -0.56
- glycan array binding signal (z-score) [23]: 0.371
- glycan array binding signal (z-score) [24]: -0.346
- glycan array binding signal (z-score) [25]: -0.969
- glycan array binding signal (z-score) [26]: 1.85
- glycan array binding signal (z-score) [27]: -0.027
- glycan array binding signal (z-score) [28]: 0.374
- glycan array binding signal (z-score) [29]: 0.154
- glycan array binding signal (z-score) [30]: 0.461
- glycan array binding signal (z-score) [31]: -1.15
- glycan array binding signal (z-score) [32]: 0.584
- glycan array binding signal (z-score) [33]: 1.73
